Assay: Boc solid-phase peptide synthesis; benzhydrylamine resin; diisopropylcarbodiimide
Conditions: whole synthesis, scale 0.25 mmole

Substance: Cpa-c[D-Cys-Pal-D-Trp-Lys-Val-Cys]-Cpa-amide
- isolated mass: 125 mg

— patent US7241737B2 (priority 2000, dated 2007)
